Reference: patent US5864012 (dated 1999)

Assay: general procedure: solution-phase peptide synthesis; pivaloyl chloride / triethylamine (mixed anhydride)
Details: HCl

Substance	step yield (late stage modification step) [%]	step yield (coupling step) [%]	crude purity (method not given) (coupling step, HPLC percent area) [%]	purity (crude or final not stated) (late stage modification step, HPLC percent area) [%]
Cbz-VV[NMeV]P-OH	96.4	–	–	–
Cbz-VV[NMeV]PP-NHBn	–	81.4	88.7	–
Me2 Val--Val--MeVal--Pro--Pro--NHBzl×HCl	–	67	–	99.1

[ ]: non-standard residue; d: D form. The star is where a group is joined. NMeV = CN[C@H](C(=O)O)C(C)C; Cbz = O=C(OCc1ccccc1)*; NHBn = c1ccc(CN*)cc1
